For experiment [1], the target named is GFP-NEDD1 (1–571) (human) (UniProt Q8NHV4). Description: co-IP; full length Myc-NEDD1 and GFP-NEDD1 constructs co-transfected into HEK293T, GFP-NEDD1 immunoprecipitated, Myc-NEDD1 detected.
In experiment [2] the target is GFP-NEDD1 CTD (572–660) (human) (UniProt Q8NHV4). Described as above.

The chains behind the UniProt entries cited, without tags or fusion partners. Where a name states a change or a piece, a line headed by the entry shows the natural chain unless it says otherwise. Residues count along the entry.
UniProt Q8NHV4: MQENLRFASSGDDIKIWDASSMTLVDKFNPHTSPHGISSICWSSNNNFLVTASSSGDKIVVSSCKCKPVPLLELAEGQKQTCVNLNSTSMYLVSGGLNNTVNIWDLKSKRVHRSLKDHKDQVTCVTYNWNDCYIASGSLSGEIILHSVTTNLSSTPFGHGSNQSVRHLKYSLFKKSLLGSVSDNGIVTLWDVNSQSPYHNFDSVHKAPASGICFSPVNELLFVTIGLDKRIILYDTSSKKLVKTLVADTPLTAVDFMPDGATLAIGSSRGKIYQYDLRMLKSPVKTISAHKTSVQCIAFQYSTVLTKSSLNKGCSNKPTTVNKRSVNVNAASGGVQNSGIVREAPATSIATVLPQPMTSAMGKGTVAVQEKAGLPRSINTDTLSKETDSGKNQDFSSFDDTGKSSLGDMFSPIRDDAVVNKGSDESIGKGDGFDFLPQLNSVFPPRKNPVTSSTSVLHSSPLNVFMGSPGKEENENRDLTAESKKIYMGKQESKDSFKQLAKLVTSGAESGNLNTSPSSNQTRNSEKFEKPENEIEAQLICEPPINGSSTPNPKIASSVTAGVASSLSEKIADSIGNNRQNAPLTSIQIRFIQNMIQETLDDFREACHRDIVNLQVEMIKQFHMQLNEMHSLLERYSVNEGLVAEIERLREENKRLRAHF
GFP-NEDD1 (1–571): residues 1-571 of Q8NHV4
GFP-NEDD1 CTD (572–660): residues 572-660 of Q8NHV4

No constants are given. Whether binding was seen depends on the method and setting. In cells and extracts the contact can be indirect. Some binding calls cover weakened binding; strength is not graded here.

With “Myc-NEDD1 full length (660 aa) (from UniProt Q8NHV4 1-660)”, the binding result in experiment [1] is listed as “no binding”; in experiment [2], “binds”.

(Values after PMC2835750, “A Direct Interaction with NEDD1 Regulates γ-Tubulin Recruitment to the Centrosome” (PLoS ONE, 2010).)
